# Measurements published in PubChem BioAssay AID2685 (National Center for Advancing Translational Sciences (NCATS), 2010).
# This is one part of the list. These are further read-outs of the screen, such as a control signal, another cell line or another target. No call is given for them. The list favours compounds with an active or inconclusive main result. The note in brackets gives the kind of curve behind each potency; many fits are weak.
# Assay: qHTS Assay for Lipid Storage Modulators in Drosophila S3 Cells;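 for cell number change: cells counted by Cell Tracker Red CMTPX staining in the red channel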
# Settings: BODIPY lipid droplet fluorescence, 18-24 h; for cell number change: measured here: cell count max response, cells fed with added oleic acid
# How it was run: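 Laser-scanning cytometry quantifies lipid droplet accumulation (500–530 nm total intensity; droplet/cell object ratio) in oleic acid-fed (400 uM added) Drosophila S3 cells treated with a concentration series. 20 uM Triacsin C defined 100% inhibition.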
# [1] = measured here: cell number channel AC50, cells fed with added oleic acid
# [2] = measured here: lipid fluorescence (Fed channel) AC50, cells fed with added oleic acid
SMILES,cell number change,AC50 [1],AC50 [2]
CCCCOc1ccc(C(=O)N/C(=C/C=C/c2ccccc2)C(=O)O)cc1,72%,"29.1 µM [rising, single point]",
COc1ccc(NC(=O)NN2CCN(C)CC2)cc1OC,16.2%,,"6.51 µM [rising, single point]"
O=C(/C=C/c1ccc(Cl)cc1)Nc1ccc(N2CCOCC2)cc1,11.9%,"6.51 µM [falling, single point]",
CCC1Oc2ccc(C)cc2N(CC(=O)N(Cc2ccc3c(c2)OCO3)CC2CCCO2)C1=O (stereo unspecified),-1.26%,,"3.26 µM [rising, partial curve]"
O=C(CCc1ccccc1)NNC(=O)Nc1ccccc1,20.1%,,
CC(=O)N1CCN(CC(=O)Nc2cc(F)ccc2C)CC1,4.99%,,"0.00517 µM [rising, full curve, poor fit]"
COc1cc(/C=C(\C#N)C(=O)Nc2ccc3ccccc3c2)c([N+](=O)[O-])cc1OC,,,"3.66 µM [rising, single point]"
O=C(NC1=NCCS1)c1ccccc1OCc1ccc(F)cc1,6.65%,,
C=CCn1cccc(/C=C/C(=O)c2ccc(C(C)(C)C)cc2)c1=S,-62.2%,"29.1 µM [falling, single point]","29.1 µM [falling, single point]"
CC(=O)NCCNS(=O)(=O)c1ccc(C)c([N+](=O)[O-])c1,30.8%,"32.6 µM [rising, single point]","29.1 µM [rising, single point]"
Cc1cc(C)n(C(=O)Cn2nc(C)c(Br)c2C)n1,-14%,,"5.8 µM [falling, single point]"
COc1ccc(CNC(=O)C2CCN(S(=O)(=O)c3cccc4nsnc34)CC2)cc1,28.1%,,"29.1 µM [rising, single point]"
O=C(NNC(=O)c1ccc(NC(=O)c2ccccc2)cc1)c1ccc(F)cc1,30.8%,,
COc1ccc(-c2cc(C(=O)NN)[nH]n2)cc1,,"6.51 µM [rising, partial curve, poor fit]","2.59 µM [rising, single point]"
CC(=O)Nc1cccc(NC(=O)CSc2ccc(-c3ccco3)nn2)c1,-10.4%,,
S=C(NCCc1ccccn1)NC1CC2CCC1C2 (stereo unspecified),-0.121%,,
COc1ccc(C2CC(=O)C(C=NCCN3CCNCC3)=C(O)C2)cc1OC (stereo unspecified),-3.51%,,"0.184 µM [falling, full curve, poor fit]"
O=C1C(C2=NC(C(=O)O)C3C(=O)N(c4ccccc4)C(=O)C23)=C(O)c2ccccc21 (stereo unspecified),-27.3%,,
Cc1cccc(NC(=O)c2nc[nH]c2C(=O)N2CCN(C(=O)OC(C)(C)C)CC2)c1,-21.2%,,"0.517 µM [rising, partial curve]"
Cn1ncc(Br)c1C(=O)N1CCCCCC1,-8.38%,,"3.26 µM [falling, single point]"
Cc1ccc2c(c1)C(=O)CC(O)(C(F)F)O2 (stereo unspecified),-7.95%,,
CCOc1cc(/C=N/N=C/c2ccc(O)c(OCC)c2)ccc1O,-16.2%,,

SMILES,cell number change,AC50 [1],AC50 [2]
Cc1cccc(NC(=O)c2nc[nH]c2C(=O)NCC(=O)OCc2ccccc2)c1,7.26%,,"29.1 µM [rising, single point]"
COc1ccc2c(c1)c(=O)oc1cc(OCC(=O)N3CCCC(C)C3)ccc12 (stereo unspecified),122%,"29.1 µM [rising, single point]","29.1 µM [rising, partial curve]"
C=CCn1c(SCC(=O)NC2CCCC2)nnc1-c1cccnc1,5.62%,,
Cc1cc(C(=O)N/N=C/c2cccc([N+](=O)[O-])c2)c(C)n1-c1ccccc1,80.5%,"29.1 µM [rising, single point]","29.1 µM [rising, partial curve]"
CCCCCCCCNC(=O)c1ccc(C)cc1,72.6%,"18.4 µM [rising, single point]","23.1 µM [rising, single point]"
CC(=O)N1N=C(c2cccc([N+](=O)[O-])c2)OC1c1ccccc1Cl (stereo unspecified),159%,"0.00411 µM [rising, full curve, poor fit]","25.9 µM [rising, single point]"
Cc1ccccc1NC(=O)COC(=O)CCSc1ccccc1,59.3%,"7.31 µM [rising, partial curve]","6.51 µM [rising, single point]"
O=C(Nc1ccnn1C1CCN(CC2CC=CCC2)CC1)c1ccccc1 (stereo unspecified),5.52%,,"0.58 µM [rising, single point]"
C/C(=N\NC(=O)c1c(Cl)c(C)nn1C)c1ccc(NC(=O)c2ccncc2)cc1,-1.1%,,
Fc1ccc(CSc2nnc(-c3cccs3)o2)cc1,-18.2%,"0.146 µM [falling, full curve, poor fit]",
C=CCC(C)(NCc1ccccc1)c1ccc(C)cc1 (stereo unspecified),-40.2%,"23.1 µM [falling, single point]","23.1 µM [falling, single point]"
COc1cc(C2CC(=O)Nc3ccccc3S2)cc(OC)c1OC (stereo unspecified),,"3.66 µM [rising, single point]",
CN(C)C(=O)COc1ccc2ccc(=O)oc2c1,25.2%,,
COCCN1Cc2cccc(C(=O)Nc3ccccc3OC)c2C1=O,13.3%,,"0.366 µM [rising, full curve]"
CSc1ccc(/C=C/C(=O)NC(=O)c2ccccc2O)cc1,-29.2%,,"18.4 µM [falling, single point]"
Cc1ccc(NC(=S)Nc2ccc(Cl)c(Cl)c2)c(OC(F)F)c1,-53.1%,"29.1 µM [falling, single point]","29.1 µM [falling, single point]"
O=C(Nc1ccnn1C1CCN(C(=O)c2cnsn2)CC1)c1cccc(F)c1,-25.4%,,"29.1 µM [falling, single point]"
CCCc1cc(=O)oc2c(C)c(O[C@@H]3O[C@H](CO)[C@@H](O)[C@H](O)[C@H]3O)ccc12,9.92%,,
Cc1ccccc1N1CCN(c2ncnc3scc(-c4cccs4)c23)CC1,-10.4%,,
COc1ccc([C@@H]2[C@@H]3C(=O)N(C(C)(C)C)C(=O)[C@@H]3[C@]3(Cc4ccccc4)C(=O)N(c4ccccc4)C(=O)N23)cc1,24.6%,,"29.1 µM [rising, single point]"
COCc1c(C(=O)NC2CCCCCC2)oc2ccccc12,,"0.092 µM [rising, full curve, poor fit]","0.103 µM [rising, full curve, poor fit]"
Cc1cc(C)n(CCCNC(=O)c2ccco2)n1,14.1%,,"20.6 µM [rising, single point]"

SMILES,cell number change,AC50 [1],AC50 [2]
O=C(CC1SC(N2CCOCC2)=NC1=O)Nc1ccc(Cl)cc1 (stereo unspecified),-21.7%,"0.00517 µM [falling, full curve, poor fit]",
NC(=O)COc1ccc(-c2noc(COc3ccccc3[N+](=O)[O-])n2)cc1,32.8%,,
COc1ccc(NC(=S)Nc2cc(S(=O)(=O)N3CCCCC3)ccc2OC)cc1,16.7%,,"4.11 µM [rising, single point]"
C=CCNc1nc(N)c(C(=C(C#N)C#N)c2ccccc2)s1,150%,"2.31 µM [rising, partial curve]",
COCC(=O)OCC(=O)Nc1cc(C(C)(C)C)nn1-c1ccccc1,41%,,
O=C1CC(C(=O)N2CCc3ccccc32)CN1c1ccc(F)cc1 (stereo unspecified),2.17%,,
NS(=O)(=O)c1ccc2nc(NC(=O)Nc3ccc(F)cc3)sc2c1,21.4%,"0.00461 µM [rising, full curve, poor fit]","29.1 µM [rising, single point]"
O=C(NCCN1CCCCC1)Nc1cccc(Cl)c1Cl,-4.95%,,
O=C(/C=C/c1ccccc1)NCC1(c2ccccc2)CCOCC1,15%,,
FC(F)(F)c1cnc2c(-c3ccccc3)n[nH]c2c1,-12.4%,,
Cc1ccc(S(=O)(=O)N2CCN(c3ncnc4sccc34)CC2)cc1,-37.4%,"16.4 µM [falling, single point]",
O=C(CSc1cn(CCNC(=O)c2ccccc2)c2ccccc12)NCc1ccco1,-10.3%,,"0.326 µM [rising, full curve, poor fit]"
CCCCOC(=O)c1cc(=O)[nH]c2ccccc12,,"3.26 µM [rising, single point]",
COc1ccc(N2CCN(C(=O)C3CCN(C(=O)c4ccccc4Cl)CC3)CC2)cc1,20.4%,,
Cc1ccc(-c2nn3c(C)nnc3s2)cc1NC(=O)COc1ccc(Cl)cc1,-39.9%,"7.31 µM [falling, partial curve]",
CC(C)c1nnc(NC(=O)COc2ccc3c(c2)OCO3)s1,0.855%,,"6.51 µM [falling, single point]"
O=C(COC(=O)C1(c2cccc(F)c2)CCCC1)NCc1ccc2c(c1)OCO2,-17.2%,,"23.1 µM [falling, single point]"
COc1ccc(OC)c(S(=O)(=O)N2CCC(C(=O)Nc3cccc(C(F)(F)F)c3)CC2)c1,,"6.51 µM [rising, single point]","6.51 µM [rising, single point]"
O=C(NCC(=O)N1CCC2(CC1)NCCc1[nH]cnc12)c1ccc2ccccc2c1,5.61%,,"7.31 µM [rising, partial curve]"
CC(C)CN1CCN(Cc2cc3ccccc3[nH]2)CC1CCO (stereo unspecified),-18.9%,,"3.26 µM [falling, full curve, poor fit]"
Cc1ccc(C)c(NC(=O)CCN2CCc3ccccc3C2)c1,,,"0.103 µM [rising, partial curve, poor fit]"

# Single values from the list.
# For AC50 [2], CC(C)CN1CCN(Cc2cc3ccccc3[nH]2)CC1CCO (stereo unspecified) shows 3.26 µM [falling, full curve, poor fit]
# For cell number change, O=C(/C=C/c1ccccc1)NCC1(c2ccccc2)CCOCC1 shows 15%
# For AC50 [2], COc1ccc(NC(=S)Nc2cc(S(=O)(=O)N3CCCCC3)ccc2OC)cc1 shows 4.11 µM [rising, single point]
# For AC50 [2], Cc1ccc(C)c(NC(=O)CCN2CCc3ccccc3C2)c1 shows 0.103 µM [rising, partial curve, poor fit]
